The results in this text go back to article PMC9192764.

No constants are given. Whether binding was seen depends on the method and setting. In cells and extracts the contact can be indirect. Some entries that bind do so weakly or less than the wild type.

B1: OppC-43aa repeat nascent chain (protein, UniProt P0AFH6 1-302)
chain: MMLSKKNSETLENFSEKLEVEGRSLWQDARRRFMHNRAAVASLIVLVLIALFVILAPMLSQFAYDDTDWAMMSSAPDMESGHYFGTDSSGRDLLVRVAIGGRSQFAYDDTDWAMMSSAPDMESGHYFGTDSSGRDLLVRVAIGGRISLMVGVAAALVAVVVGTLYGSLSGYLGGKVDSVMMRLLEILNSFPFMFFVILLVTFFGQNILLIFVAIGMVSWLDMARIVRGQTLSLKRKEFIEAAQVGGVSTSGIVIRHIVPNVLGVVVVYASLLVPSMILFESFLSFLGLGTQEPLSSWGALLSDGANSMEVSPWLLLFPAGFLVVTLFCFNFIGDGLRDALDPKDR
B2: WT OppC nascent chain (protein, UniProt P0AFH6 1-302)
chain: MMLSKKNSETLENFSEKLEVEGRSLWQDARRRFMHNRAAVASLIVLVLIALFVILAPMLSQFAYDDTDWAMMSSAPDMESGHYFGTDSSGRDLLVRVAIGGRISLMVGVAAALVAVVVGTLYGSLSGYLGGKVDSVMMRLLEILNSFPFMFFVILLVTFFGQNILLIFVAIGMVSWLDMARIVRGQTLSLKRKEFIEAAQVGGVSTSGIVIRHIVPNVLGVVVVYASLLVPSMILFESFLSFLGLGTQEPLSSWGALLSDGANSMEVSPWLLLFPAGFLVVTLFCFNFIGDGLRDALDPKDR
B3: AcrB-∆71aa nascent chain (protein, UniProt P31224)
chain: MPNFFIDRPIFAWVIAIIIMLAGGLAILKLPVAQYPTIAPPAVTISASYEVQQQGVSVEKSSSSFLMVVGVINTDGTMTQEDISDYVAANMKDAISRTSGVGDVQLFGSQYAMRIWMNPNELNKFQLTPVDVITAIKAQNAQVAAGQLGGTPPVKGQQLNASIIAQTRLTSTEEFGKILLKVNQDGSRVLLRDVAKIELGGENYDIIAEFNGQPASGLGIKLATGANALDTAAAIRAELAKMEPFFPSGLKIVYPYDTTPFVKISIHEVVKTLVEAIILVFLVMYLFLQNFRATLIPTIAVPVVLLGTFAVLAAFGFSINTLTMFGMVLAIGLLVDDAIVVVENVERVMAEEGLPPKEATRKSMGQIQGALVGIAMVLSAVFVPMAFFGGSTGAIYRQFSITIVSAMALSVLVALILTPALCATMLKPIAKGDHGEGKKGFFGWFNRMFEKSTHHYTDSVGGILRSTGRYLVLYLIIVVGMAYLFVRLPSSFLPDEDQGVFMTMVQLPAGATQERTQKVLNEVTHYYLTKEKNNVESVFAVNGFGFAGRGQNTGIAFVSLKDWADRPGEENKVEAITMRATRAFSQIKDAMVFAFNLPAIVELGTATGFDFELIDQAGLGHEKLTQARNQLLAEAAKHPDMLTSVRPNGLEDTPQFKIDIDQEKAQALGVSINDINTTLGAAWGGSYVNDFIDRGRVKKVYVMSEAKYRMLPDDIGDWYVRAADGQMVPFSAFSSSRWEYGSPRLERYNGLPSMEILGQAAPGKSTGEAMELMEQLASKLPTGVGYDWTGMSYQERLSGNQAPSLYAISLIVVFLCLAALYESWSIPFSVMLVVPLGVIGALLAATFRGLTNDVYFQVGLLTTIGLSAKNAILIVEFAKDLMDKEGKGLIEATLDAVRMRLRPILMTSLAFILGVMPLVISTGAGSGAQNAVGTGVMGGMVTATVLAIFFVPVFFVVVRRRFSRKNEDIEHSHTVDHH
B4: WT AcrB nascent chain (protein, UniProt P31224 1-1049)
chain: MPNFFIDRPIFAWVIAIIIMLAGGLAILKLPVAQYPTIAPPAVTISASYPGADAKTVQDTVTQVIEQNMNGIDNLMYMSSNSDSTGTVQITLTFESGTDADIAQVQVQNKLQLAMPLLPQEVQQQGVSVEKSSSSFLMVVGVINTDGTMTQEDISDYVAANMKDAISRTSGVGDVQLFGSQYAMRIWMNPNELNKFQLTPVDVITAIKAQNAQVAAGQLGGTPPVKGQQLNASIIAQTRLTSTEEFGKILLKVNQDGSRVLLRDVAKIELGGENYDIIAEFNGQPASGLGIKLATGANALDTAAAIRAELAKMEPFFPSGLKIVYPYDTTPFVKISIHEVVKTLVEAIILVFLVMYLFLQNFRATLIPTIAVPVVLLGTFAVLAAFGFSINTLTMFGMVLAIGLLVDDAIVVVENVERVMAEEGLPPKEATRKSMGQIQGALVGIAMVLSAVFVPMAFFGGSTGAIYRQFSITIVSAMALSVLVALILTPALCATMLKPIAKGDHGEGKKGFFGWFNRMFEKSTHHYTDSVGGILRSTGRYLVLYLIIVVGMAYLFVRLPSSFLPDEDQGVFMTMVQLPAGATQERTQKVLNEVTHYYLTKEKNNVESVFAVNGFGFAGRGQNTGIAFVSLKDWADRPGEENKVEAITMRATRAFSQIKDAMVFAFNLPAIVELGTATGFDFELIDQAGLGHEKLTQARNQLLAEAAKHPDMLTSVRPNGLEDTPQFKIDIDQEKAQALGVSINDINTTLGAAWGGSYVNDFIDRGRVKKVYVMSEAKYRMLPDDIGDWYVRAADGQMVPFSAFSSSRWEYGSPRLERYNGLPSMEILGQAAPGKSTGEAMELMEQLASKLPTGVGYDWTGMSYQERLSGNQAPSLYAISLIVVFLCLAALYESWSIPFSVMLVVPLGVIGALLAATFRGLTNDVYFQVGLLTTIGLSAKNAILIVEFAKDLMDKEGKGLIEATLDAVRMRLRPILMTSLAFILGVMPLVISTGAGSGAQNAVGTGVMGGMVTATVLAIFFVPVFFVVVRRRFSRKNEDIEHSHTVDHH

The assay concerns the target SecA with a C-terminal thrombin-cleavable AviTag (chromosomal) (E. coli (endogenous in strain K-12 W3110)) (UniProt P10408). The experiment in a line: selective ribosome profiling (EDC cross-linking, affinity purification of SecA-bound ribosome-nascent chain complexes, sequencing of ribosome-protected mRNA fragments); cryogenically lysed E. coli W3110 cells; SecA cross-linked to nascent chains in the lysate with 20 mM EDC at room temperature; MNase digestion; monosomes through a sucrose cushion; biotinylated Avi-tagged SecA held on streptavidin magnetic beads, eluted by thrombin; enrichment = SecA interactome over translatome at each codon; two biological replicates; also done in secA∆ZnBD, ∆secB, ∆tig and CCCP-treated cells.
In the case of B1, the binding entry is listed as “binds”. In the case of B2, the binding entry is given as “no binding”. Take B3: the binding entry is reported as “binds”. As to B4, the binding result is “binds”.
